Laboratory results: patent publication US11254705B2 (Sirenas LLC, priority 2016, dated 2022)

Assay: general procedure: solution-phase peptide synthesis; EDC/DMAP (esterification); EDC/HOAt (macrolactamisation)
Conditions: late stage modification step

Work on “(2R,5S,8R,14S,17R,20S,21S,22S,E)-8-benzyl-20-((E)-but-2-en-2-yl)-14-((R)-sec-butyl)-2-isobutyl-5,7,10,17,21,25-hexamethyl-3,6,9,12,15,18,26-heptaoxo-1,19-dioxa-4,7,10,13,16-pentaazacyclohexacos-24-en-22-yl (3-hydroxypropyl)carbamate” yielded a step yield of 37.4%.
